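Genome-wide siRNA knockdown in TC32 Ewing sarcoma cells, comparing luciferase light from an NR0B1-promoter reporter with a CMV-promoter reporter 48 hours after transfection.
Each siRNA was applied at 20 nM.
A z-score of the log NR0B1-over-CMV signal, less the median of siRNAs with the same seed; more negative means a stronger specific loss of the NR0B1 reporter.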

This is part of the screen; most of the strongest results are not listed here.
Sequences are the guide (antisense) strand, without overhang.

{"sirna": "UGGUCGUUAAGAUAGAUCC", "target gene": "GAN", "seed-corrected z-score": "-0.06677"}
{"sirna": "UCAGGCACCAGUGGUGAGU", "target gene": "CLDN2", "seed-corrected z-score": "0.3969"}
{"sirna": "UCAGAGACCAGAAGAGACC", "target gene": "BAAT", "seed-corrected z-score": "1.08"}
{"sirna": "UGCGUUCAAACACCGGCAG", "target gene": "PUSL1", "seed-corrected z-score": "-0.2686"}
{"sirna": "UGAUGGGCAAGUUGUACCC", "target gene": "GYPA", "seed-corrected z-score": "-0.03423"}
{"sirna": "UUGUGAUCCAUGGGAACCC", "target gene": "C2orf71", "seed-corrected z-score": "0.007772"}
{"sirna": "AUUGUUAGUAACAUUCUUG", "target gene": "TPM4", "seed-corrected z-score": "2.485"}
{"sirna": "UGCACGAACACGUUUGCCU", "target gene": "IGFALS", "seed-corrected z-score": "0.01447"}
{"sirna": "UUCUCAACAAGCGCGUCUC", "target gene": "MCIDAS", "seed-corrected z-score": "0.3101"}
{"sirna": "UUCAGCUUAAGCAUGAGGC", "target gene": "WDR83OS", "seed-corrected z-score": "-1.85"}
{"sirna": "AAUAGUUCAUCUAUGGGUC", "target gene": "ICA1", "seed-corrected z-score": "-0.2941"}
{"sirna": "UGGUUUGAAUUGAAUGUCC", "target gene": "SMAD4", "seed-corrected z-score": "-0.8555"}
{"sirna": "AUCGUUUUUGUACAAAUCG", "target gene": "DTNB", "seed-corrected z-score": "0.008827"}
{"sirna": "UUUCGUUAUACAGAUAGGC", "target gene": "NUP133", "seed-corrected z-score": "0.1324"}
{"sirna": "UCUUCAUCCACGUUCUCGU", "target gene": "INO80E", "seed-corrected z-score": "-0.829"}
{"sirna": "UAACCUCUAAAAUCGUUGC", "target gene": "ADAM10", "seed-corrected z-score": "-0.1501"}
{"sirna": "UGAAUUUCCGGGACCUCUG", "target gene": "C14orf105", "seed-corrected z-score": "-0.8105"}
{"sirna": "UAACGAAGAAGCAUCUUGG", "target gene": "UBN2", "seed-corrected z-score": "-0.6941"}
{"sirna": "AGCUGGACAAUGGUCUCUC", "target gene": "SRPK3", "seed-corrected z-score": "-0.6447"}
{"sirna": "UGCUGAUAAACCGAGUCGU", "target gene": "PLPPR3", "seed-corrected z-score": "0.1645"}
{"sirna": "AACAUGUACCUCGAUAAUC", "target gene": "DNAJA4", "seed-corrected z-score": "0.7362"}
{"sirna": "AGUGGAAGCAACAAACAUC", "target gene": "RPSAP48", "seed-corrected z-score": "-0.4787"}
{"sirna": "UGAGCAUUCAAAAGAACCG", "target gene": "NKAPL", "seed-corrected z-score": "0.721"}
{"sirna": "UGCACAGUGAGGUUCAUGC", "target gene": "ZNF71", "seed-corrected z-score": "0.1528"}
{"sirna": "AAUGGGACAGAAGUUGUUG", "target gene": "LINC01565", "seed-corrected z-score": "-0.1942"}
{"sirna": "UACUUUACCACCCAUGCUC", "target gene": "ST13", "seed-corrected z-score": "-0.6408"}
{"sirna": "ACAACGAACAAAGUUAGGG", "target gene": "MYH10", "seed-corrected z-score": "-0.06796"}
{"sirna": "UAUCUCGAAAAUCAAACUC", "target gene": "GIGYF2", "seed-corrected z-score": "0.6246"}
{"sirna": "AAAAUAGAGUUCAUUGUCG", "target gene": "PLCXD3", "seed-corrected z-score": "-0.07749"}
{"sirna": "AAUGGGACCAAAGCAGCCC", "target gene": "CD70", "seed-corrected z-score": "1.219"}
{"sirna": "UUCGUCAAUAGAGCUGAUU", "target gene": "VPS28", "seed-corrected z-score": "0.04123"}
{"sirna": "UAGUUGACCAUUUUCUGCU", "target gene": "TWF2", "seed-corrected z-score": "0.3909"}
{"sirna": "UUCUCGAUCAAAGAUGCUC", "target gene": "SPINK5", "seed-corrected z-score": "0.06678"}
{"sirna": "UUACUAGAAGGGAAGCCGC", "target gene": "DNAJB12", "seed-corrected z-score": "0.1094"}
{"sirna": "UCAUUGACCAGAAUACGGA", "target gene": "TLCD2", "seed-corrected z-score": "-0.1252"}
{"sirna": "AACGUAAUUCGUAACUCUC", "target gene": "RPL22", "seed-corrected z-score": "0.03258"}
{"sirna": "UCUUCUCUCCUUGUUAAUC", "target gene": "C9orf152", "seed-corrected z-score": "-1.697"}
{"sirna": "AAUAUAAGGAAUUUUUCUC", "target gene": "NTS", "seed-corrected z-score": "0.943"}
{"sirna": "ACACGGUCUGGUUUAAUCC", "target gene": "IRX5", "seed-corrected z-score": "-0.5781"}
{"sirna": "AACCAAGCCGCGAAUUCUC", "target gene": "LGALS7B", "seed-corrected z-score": "1.054"}
{"sirna": "UGAGAUGUCGCUCUCAUGC", "target gene": "SLC12A5", "seed-corrected z-score": "0.1248"}
{"sirna": "UUGAGUGGAACAGUUGUAU", "target gene": "CLEC2B", "seed-corrected z-score": "-0.853"}
{"sirna": "AAGGUUUUAGCUGUUGACU", "target gene": "ICAM1", "seed-corrected z-score": "0.1825"}
{"sirna": "UAGAGCAUCUUGCAUAUCC", "target gene": "SCAMP2", "seed-corrected z-score": "-0.1352"}
{"sirna": "UCUUCAUCAAGCCUUAUUC", "target gene": "EID3", "seed-corrected z-score": "-0.3835"}
{"sirna": "UGUGCAUGCUUUUUCGUUC", "target gene": "PFDN1", "seed-corrected z-score": "0.5086"}
{"sirna": "UCUCCACCAAAUGAGUUCC", "target gene": "SKOR1", "seed-corrected z-score": "-0.01047"}
{"sirna": "UUCGAUACGACAUAUCAUC", "target gene": "LMO7", "seed-corrected z-score": "-0.2726"}
{"sirna": "AAUUUGUCAAUGUUGAGAG", "target gene": "NUP58", "seed-corrected z-score": "-0.5783"}
{"sirna": "AUAGUUACAAUGACUGUCC", "target gene": "GPR19", "seed-corrected z-score": "0.65"}

6 of the entries, repeated:

- UCAUUGACCAGAAUACGGA against TLCD2 | seed-corrected z-score -0.1252
- UUGAGUGGAACAGUUGUAU against CLEC2B | seed-corrected z-score -0.853
- AGUGGAAGCAACAAACAUC against RPSAP48 | seed-corrected z-score -0.4787
- UGGUUUGAAUUGAAUGUCC against SMAD4 | seed-corrected z-score -0.8555
- UCAGGCACCAGUGGUGAGU against CLDN2 | seed-corrected z-score 0.3969
- AUUGUUAGUAACAUUCUUG against TPM4 | seed-corrected z-score 2.485

Source: PubChem BioAssay AID1159506 (NCATS, 2015).